In publication PMC13478228:
No constants are given. Whether binding was seen depends on the method and setting. Sequences can lack the tags named with a protein.

Molecular target: T1, human sirtuin 2 (SIRT2), C-terminal His tag (human), Q8IXJ6
T1 chain: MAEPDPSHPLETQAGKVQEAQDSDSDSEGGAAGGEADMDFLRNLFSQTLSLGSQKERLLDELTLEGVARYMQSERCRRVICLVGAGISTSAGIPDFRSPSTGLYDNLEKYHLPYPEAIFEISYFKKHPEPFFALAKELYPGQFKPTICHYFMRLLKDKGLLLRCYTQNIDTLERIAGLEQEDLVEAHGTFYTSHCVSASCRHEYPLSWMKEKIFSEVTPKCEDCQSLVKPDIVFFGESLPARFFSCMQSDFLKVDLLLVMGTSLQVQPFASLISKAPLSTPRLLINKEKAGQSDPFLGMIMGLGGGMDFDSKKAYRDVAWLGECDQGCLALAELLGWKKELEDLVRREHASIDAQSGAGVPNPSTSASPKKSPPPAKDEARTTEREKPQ
Experiment: SEC; analytical SEC of pre-mixed, separately purified SerRS and SIRT2-His, no ligand added; both purified
Conditions: remark: other sources report otherwise

B1: human sirtuin 2 (SIRT2), C-terminal His tag, Q8IXJ6 1-389 (enzyme)
chain: MAEPDPSHPLETQAGKVQEAQDSDSDSEGGAAGGEADMDFLRNLFSQTLSLGSQKERLLDELTLEGVARYMQSERCRRVICLVGAGISTSAGIPDFRSPSTGLYDNLEKYHLPYPEAIFEISYFKKHPEPFFALAKELYPGQFKPTICHYFMRLLKDKGLLLRCYTQNIDTLERIAGLEQEDLVEAHGTFYTSHCVSASCRHEYPLSWMKEKIFSEVTPKCEDCQSLVKPDIVFFGESLPARFFSCMQSDFLKVDLLLVMGTSLQVQPFASLISKAPLSTPRLLINKEKAGQSDPFLGMIMGLGGGMDFDSKKAYRDVAWLGECDQGCLALAELLGWKKELEDLVRREHASIDAQSGAGVPNPSTSASPKKSPPPAKDEARTTEREKPQ
In the case of B1, the binding is reported as “no binding”.
